Data as given in PubChem BioAssay (Tox21).
Inconclusive means that the source gave no clear call. Such entries were picked first, then a sample of the others. Potencies beside an inconclusive call are fits to weak or partial responses and may not hold up. Calls of active or inactive are those of the source. Unless noted, calls come from the whole dose curve.

The chains behind the UniProt entries cited, without tags or fusion partners.
UniProt P14416, whole entry, looked up: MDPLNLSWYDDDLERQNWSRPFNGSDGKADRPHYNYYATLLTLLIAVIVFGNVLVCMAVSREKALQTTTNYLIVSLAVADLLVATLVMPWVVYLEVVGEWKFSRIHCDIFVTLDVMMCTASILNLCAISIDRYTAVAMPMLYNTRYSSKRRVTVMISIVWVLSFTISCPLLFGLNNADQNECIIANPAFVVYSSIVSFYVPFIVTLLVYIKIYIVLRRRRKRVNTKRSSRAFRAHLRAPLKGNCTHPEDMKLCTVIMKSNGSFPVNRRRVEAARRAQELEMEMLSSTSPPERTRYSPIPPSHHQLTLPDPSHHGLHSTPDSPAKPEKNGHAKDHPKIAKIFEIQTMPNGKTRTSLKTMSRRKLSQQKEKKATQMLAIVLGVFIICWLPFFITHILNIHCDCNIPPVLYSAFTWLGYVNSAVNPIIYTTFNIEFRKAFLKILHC

Target: D(2) dopamine receptor (Homo sapiens) (UniProt P14416)
Experiment: Dopamine D2 receptor (DRD2) small molecule agonists, cell-based qHTS assay (AID 1963594); note: nearly all actives have a fitted effect of over 35% in size
Conditions: HEK293-DRD2 cAMP HTRF, agonist mode, 30 min; activation: at 92.4 µM (top of the series) unless noted
Procedure, shortened: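 HEK293 cells stably expressing DRD2 were cultured 24 h at 37 C, then given Ro20-1724 (0.1 mM final) and compounds for 10 min at room temperature. NKH477 (200nM) was then added for 30 min. cAMP was read by HTRF.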
% is set by controls: 0 for no effect and ±100 for the full control effect; potency is the fitted concentration of half-maximal effect.

Row | SMILES | Potency | activation
1 | Cc1nc(Nc2ncc(C(=O)Nc3c(C)cccc3Cl)s2)cc(N2CCN(CCO)CC2)n1 | inconclusive: 13.3 µM [rising, partial curve] | 
2 | N#C/C(=C1/SC[C@@H](c2ccc(Cl)cc2Cl)S1)n1ccnc1 | active: 26.6 µM | 
3 | CCc1cccc(CC)c1N | inconclusive: 0.00907 µM | 
4 | CCNc1ccccc1 |  | inconclusive: 22.2%
5 | CC(C)C(C)(C)C(C)(C)C(C)(C)S |  | inconclusive: 0.175%
6 | CO[C@H]1C=CO[C@@]2(C)Oc3c(C)c(O)c4c(O)c(c5c(c4c3C2=O)=NC2(CCN(CC(C)C)CC2)N=5)NC(=O)/C(C)=C\C=C/[C@H](C)[C@H](O)[C@@H](C)[C@@H](O)[C@@H](C)[C@H](OC(C)=O)[C@@H]1C | inconclusive: 60.7 µM [falling, partial curve, poor fit] | 

Target: D(2) dopamine receptor (Homo sapiens) (UniProt P14416)
Experiment: Dopamine D2 receptor (DRD2) small molecule antagonists, cell-based qHTS assay (AID 1963595; active = well fitted inhibition curve with a large enough effect in the signal ratio in the repeat runs, with a control signal flat; inconclusive = weak or mixed curves, or effect the other way; the % refers to the signal ratio)
Conditions: HEK293-DRD2 cAMP HTRF antagonist mode; activity change, negative = inhibition: at 92.4 µM (top of the series) unless noted
Procedure, shortened: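 HTRF cAMP read-out at 665 and 620 nm emission (340 nm excitation). Antagonist mode: compounds were tested against 12 nM quinpirole in DRD2-HEK293 cells, with 200 nM NKH477 raising cAMP and 0.1 mM Ro20-1724 blocking its breakdown.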

Row | SMILES | Potency | activity change, negative = inhibition
7 | O=C(O)Cc1cc(I)c(Oc2ccc(O)c(I)c2)c(I)c1 | inconclusive: 27.3 µM [inhibitor, partial curve, poor fit] | 
8 | CC(=O)c1ccc2ccc3ccccc3c2c1 |  | inactive: -15.3%
9 | CC(C)C(C)(C)C(C)(C)C(C)(C)S |  | inconclusive: -10.1%
10 | CO[C@H]1C=CO[C@@]2(C)Oc3c(C)c(O)c4c(O)c(c5c(c4c3C2=O)=NC2(CCN(CC(C)C)CC2)N=5)NC(=O)/C(C)=C\C=C/[C@H](C)[C@H](O)[C@@H](C)[C@@H](O)[C@@H](C)[C@H](OC(C)=O)[C@@H]1C | inconclusive: 37.7 µM [falling, partial curve, poor fit] | 
11 | CC(=O)CC(=O)OC(C)(C)C |  | inactive: 1.86%
12 | O=c1[nH]c2ccccc2n1CCCN1CCN(C(c2ccccc2)c2ccccc2)CC1 | active: 11.9 µM | 
13 | CN1C(=O)N(c2ccccc2Br)Cc2cnc(Nc3ccc4c(c3)OCC(CO)O4)nc21 (stereo not drawn) |  | inconclusive: -26.1%
